Results: the supplement of paper PMC10849652
This is one part of the list.

Sequences of proteins named here, by UniProt entry; tags and fusion partners are left off. A change or cut given only in a name is not applied to a line headed by its entry.
UniProt Q15365, whole entry, looked up: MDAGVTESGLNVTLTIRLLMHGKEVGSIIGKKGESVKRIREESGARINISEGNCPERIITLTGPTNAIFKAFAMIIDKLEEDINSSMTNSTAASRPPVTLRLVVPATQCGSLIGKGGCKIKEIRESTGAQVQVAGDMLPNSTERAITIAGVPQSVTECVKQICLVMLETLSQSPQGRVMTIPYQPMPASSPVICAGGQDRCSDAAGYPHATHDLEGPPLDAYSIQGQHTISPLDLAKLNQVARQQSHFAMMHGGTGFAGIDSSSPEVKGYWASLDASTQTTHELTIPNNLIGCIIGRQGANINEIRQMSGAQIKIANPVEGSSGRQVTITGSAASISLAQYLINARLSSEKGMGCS
UniProt Q9H4Z3: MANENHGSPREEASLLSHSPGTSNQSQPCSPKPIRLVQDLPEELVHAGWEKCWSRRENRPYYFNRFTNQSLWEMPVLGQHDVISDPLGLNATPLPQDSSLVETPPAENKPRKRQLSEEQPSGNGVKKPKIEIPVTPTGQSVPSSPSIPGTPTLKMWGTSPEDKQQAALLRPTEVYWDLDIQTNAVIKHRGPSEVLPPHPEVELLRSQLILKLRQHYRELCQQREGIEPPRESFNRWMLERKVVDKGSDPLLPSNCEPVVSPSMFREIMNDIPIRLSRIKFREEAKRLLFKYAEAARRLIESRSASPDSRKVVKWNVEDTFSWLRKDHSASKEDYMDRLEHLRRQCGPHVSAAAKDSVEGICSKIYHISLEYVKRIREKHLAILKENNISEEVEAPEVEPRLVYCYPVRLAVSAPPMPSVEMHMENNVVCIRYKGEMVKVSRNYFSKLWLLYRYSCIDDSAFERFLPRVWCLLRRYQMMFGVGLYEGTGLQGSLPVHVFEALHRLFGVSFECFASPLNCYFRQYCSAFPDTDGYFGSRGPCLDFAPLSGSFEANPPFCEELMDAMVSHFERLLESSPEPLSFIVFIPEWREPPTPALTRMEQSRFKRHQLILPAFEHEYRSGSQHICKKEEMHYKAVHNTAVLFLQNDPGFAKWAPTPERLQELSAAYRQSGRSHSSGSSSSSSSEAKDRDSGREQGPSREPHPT
UniProt Q96KB5: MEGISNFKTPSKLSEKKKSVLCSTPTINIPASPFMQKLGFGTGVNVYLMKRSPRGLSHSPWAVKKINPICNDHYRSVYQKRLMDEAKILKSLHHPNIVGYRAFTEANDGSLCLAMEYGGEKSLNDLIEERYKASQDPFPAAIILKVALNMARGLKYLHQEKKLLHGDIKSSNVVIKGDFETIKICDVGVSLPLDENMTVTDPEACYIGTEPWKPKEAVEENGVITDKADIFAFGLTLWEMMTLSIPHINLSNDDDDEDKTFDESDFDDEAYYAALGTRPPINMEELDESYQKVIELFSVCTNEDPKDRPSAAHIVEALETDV
UniProt O15530: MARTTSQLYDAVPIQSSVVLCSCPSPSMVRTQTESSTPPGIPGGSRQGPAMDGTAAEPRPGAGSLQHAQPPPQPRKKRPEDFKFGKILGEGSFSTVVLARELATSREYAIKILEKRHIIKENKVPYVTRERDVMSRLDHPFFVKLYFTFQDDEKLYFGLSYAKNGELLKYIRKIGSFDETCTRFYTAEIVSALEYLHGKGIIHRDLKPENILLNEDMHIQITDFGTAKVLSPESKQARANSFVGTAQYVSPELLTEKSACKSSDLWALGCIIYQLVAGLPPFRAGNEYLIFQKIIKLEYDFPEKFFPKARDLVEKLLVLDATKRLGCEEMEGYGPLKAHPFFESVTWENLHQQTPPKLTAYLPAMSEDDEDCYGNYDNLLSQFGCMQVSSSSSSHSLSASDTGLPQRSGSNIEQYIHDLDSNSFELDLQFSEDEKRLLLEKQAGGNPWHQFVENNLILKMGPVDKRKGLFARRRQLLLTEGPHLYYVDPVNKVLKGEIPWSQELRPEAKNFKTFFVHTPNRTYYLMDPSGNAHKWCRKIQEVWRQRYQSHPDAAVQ
UniProt Q86W56: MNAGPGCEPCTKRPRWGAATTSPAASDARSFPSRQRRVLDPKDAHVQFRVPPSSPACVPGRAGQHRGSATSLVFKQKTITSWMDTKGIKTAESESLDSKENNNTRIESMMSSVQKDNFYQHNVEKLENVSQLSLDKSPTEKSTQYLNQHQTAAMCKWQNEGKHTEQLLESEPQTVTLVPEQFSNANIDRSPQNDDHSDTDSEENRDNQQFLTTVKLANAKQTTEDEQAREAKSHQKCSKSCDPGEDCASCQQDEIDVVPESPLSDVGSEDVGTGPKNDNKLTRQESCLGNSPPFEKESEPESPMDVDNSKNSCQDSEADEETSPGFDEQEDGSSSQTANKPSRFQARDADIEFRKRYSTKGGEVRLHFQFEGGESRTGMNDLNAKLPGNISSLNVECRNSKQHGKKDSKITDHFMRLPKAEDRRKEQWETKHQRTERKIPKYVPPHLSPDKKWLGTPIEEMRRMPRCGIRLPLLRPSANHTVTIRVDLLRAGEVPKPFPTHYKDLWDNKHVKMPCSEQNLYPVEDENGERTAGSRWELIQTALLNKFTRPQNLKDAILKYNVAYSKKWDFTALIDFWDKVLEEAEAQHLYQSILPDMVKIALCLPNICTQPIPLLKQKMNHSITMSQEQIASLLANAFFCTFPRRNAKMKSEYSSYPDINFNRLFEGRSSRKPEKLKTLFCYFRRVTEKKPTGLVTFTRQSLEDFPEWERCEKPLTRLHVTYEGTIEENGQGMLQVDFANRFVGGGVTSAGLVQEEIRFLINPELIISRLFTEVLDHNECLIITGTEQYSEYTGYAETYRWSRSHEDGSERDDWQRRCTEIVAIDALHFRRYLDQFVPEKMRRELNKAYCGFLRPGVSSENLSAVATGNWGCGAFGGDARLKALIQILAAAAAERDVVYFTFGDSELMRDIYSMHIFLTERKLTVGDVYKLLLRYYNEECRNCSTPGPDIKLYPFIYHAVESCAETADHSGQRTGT
UniProt P49585: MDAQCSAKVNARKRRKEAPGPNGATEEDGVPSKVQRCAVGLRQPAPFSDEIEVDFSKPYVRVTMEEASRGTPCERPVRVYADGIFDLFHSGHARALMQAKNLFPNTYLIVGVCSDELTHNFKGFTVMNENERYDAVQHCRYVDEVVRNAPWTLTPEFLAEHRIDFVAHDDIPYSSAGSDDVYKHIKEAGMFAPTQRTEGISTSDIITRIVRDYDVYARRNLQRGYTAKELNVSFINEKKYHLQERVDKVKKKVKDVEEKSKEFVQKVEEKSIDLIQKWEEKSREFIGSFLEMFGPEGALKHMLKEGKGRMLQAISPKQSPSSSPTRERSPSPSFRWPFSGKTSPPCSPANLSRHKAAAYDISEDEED
UniProt Q9P0J1: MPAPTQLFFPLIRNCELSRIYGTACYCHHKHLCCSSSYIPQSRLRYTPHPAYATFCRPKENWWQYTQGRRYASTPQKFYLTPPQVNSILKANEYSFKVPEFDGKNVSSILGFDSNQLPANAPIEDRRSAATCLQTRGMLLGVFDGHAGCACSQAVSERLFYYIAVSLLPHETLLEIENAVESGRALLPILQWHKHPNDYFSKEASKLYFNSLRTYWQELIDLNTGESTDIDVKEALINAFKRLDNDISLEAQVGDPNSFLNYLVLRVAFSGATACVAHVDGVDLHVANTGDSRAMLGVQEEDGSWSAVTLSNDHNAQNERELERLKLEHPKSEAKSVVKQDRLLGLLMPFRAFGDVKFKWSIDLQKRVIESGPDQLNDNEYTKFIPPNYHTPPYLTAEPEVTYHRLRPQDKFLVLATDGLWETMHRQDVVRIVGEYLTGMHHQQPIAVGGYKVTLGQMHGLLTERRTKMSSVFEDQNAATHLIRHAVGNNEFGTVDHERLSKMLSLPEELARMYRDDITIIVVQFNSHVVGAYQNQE
UniProt Q9UKL6: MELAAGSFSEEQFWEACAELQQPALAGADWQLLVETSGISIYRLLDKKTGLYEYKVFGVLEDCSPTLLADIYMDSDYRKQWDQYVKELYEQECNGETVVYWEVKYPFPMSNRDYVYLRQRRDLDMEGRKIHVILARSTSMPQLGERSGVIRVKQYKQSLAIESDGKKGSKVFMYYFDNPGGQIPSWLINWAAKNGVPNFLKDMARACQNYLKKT
UniProt Q86TB9: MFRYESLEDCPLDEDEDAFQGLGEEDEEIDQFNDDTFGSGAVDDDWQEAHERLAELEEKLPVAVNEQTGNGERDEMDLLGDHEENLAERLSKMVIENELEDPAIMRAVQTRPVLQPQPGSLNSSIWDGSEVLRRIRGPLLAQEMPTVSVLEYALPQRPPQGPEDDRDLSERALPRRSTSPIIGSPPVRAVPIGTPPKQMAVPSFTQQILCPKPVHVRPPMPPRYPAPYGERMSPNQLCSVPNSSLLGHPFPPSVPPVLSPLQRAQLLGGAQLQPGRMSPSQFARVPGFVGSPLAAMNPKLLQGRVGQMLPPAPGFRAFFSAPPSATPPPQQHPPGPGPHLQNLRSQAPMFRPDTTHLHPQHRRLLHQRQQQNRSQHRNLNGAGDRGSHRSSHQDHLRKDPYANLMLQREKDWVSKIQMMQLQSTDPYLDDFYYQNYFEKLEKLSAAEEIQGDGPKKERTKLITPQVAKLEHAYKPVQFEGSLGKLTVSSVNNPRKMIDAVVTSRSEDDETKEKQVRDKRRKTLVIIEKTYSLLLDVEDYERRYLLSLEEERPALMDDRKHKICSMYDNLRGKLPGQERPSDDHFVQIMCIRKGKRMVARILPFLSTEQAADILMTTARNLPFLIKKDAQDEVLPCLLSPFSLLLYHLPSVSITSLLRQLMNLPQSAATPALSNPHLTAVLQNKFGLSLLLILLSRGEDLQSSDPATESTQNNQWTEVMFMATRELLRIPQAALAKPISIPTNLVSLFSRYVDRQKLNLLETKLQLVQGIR
UniProt Q5JVF3: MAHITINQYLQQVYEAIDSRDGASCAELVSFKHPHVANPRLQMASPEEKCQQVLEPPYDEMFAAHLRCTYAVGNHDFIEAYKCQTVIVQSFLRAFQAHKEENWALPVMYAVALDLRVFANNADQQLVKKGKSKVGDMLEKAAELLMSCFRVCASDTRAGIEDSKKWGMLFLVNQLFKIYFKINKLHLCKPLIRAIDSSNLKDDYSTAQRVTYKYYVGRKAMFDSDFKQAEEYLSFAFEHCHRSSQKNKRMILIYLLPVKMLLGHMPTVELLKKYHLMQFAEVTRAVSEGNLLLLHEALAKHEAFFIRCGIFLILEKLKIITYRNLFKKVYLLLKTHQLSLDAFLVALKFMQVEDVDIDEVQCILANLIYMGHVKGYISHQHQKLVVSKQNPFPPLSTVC
UniProt Q9BYE7: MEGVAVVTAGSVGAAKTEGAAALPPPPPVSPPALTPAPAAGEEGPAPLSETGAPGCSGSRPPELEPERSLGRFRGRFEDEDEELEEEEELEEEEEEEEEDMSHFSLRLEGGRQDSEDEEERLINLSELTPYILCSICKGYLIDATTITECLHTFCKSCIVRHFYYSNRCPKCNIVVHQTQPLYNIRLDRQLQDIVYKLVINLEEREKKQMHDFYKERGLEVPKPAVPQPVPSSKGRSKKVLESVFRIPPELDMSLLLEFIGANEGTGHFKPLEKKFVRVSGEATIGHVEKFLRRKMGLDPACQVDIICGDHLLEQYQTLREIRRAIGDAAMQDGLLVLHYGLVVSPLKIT
UniProt P29122: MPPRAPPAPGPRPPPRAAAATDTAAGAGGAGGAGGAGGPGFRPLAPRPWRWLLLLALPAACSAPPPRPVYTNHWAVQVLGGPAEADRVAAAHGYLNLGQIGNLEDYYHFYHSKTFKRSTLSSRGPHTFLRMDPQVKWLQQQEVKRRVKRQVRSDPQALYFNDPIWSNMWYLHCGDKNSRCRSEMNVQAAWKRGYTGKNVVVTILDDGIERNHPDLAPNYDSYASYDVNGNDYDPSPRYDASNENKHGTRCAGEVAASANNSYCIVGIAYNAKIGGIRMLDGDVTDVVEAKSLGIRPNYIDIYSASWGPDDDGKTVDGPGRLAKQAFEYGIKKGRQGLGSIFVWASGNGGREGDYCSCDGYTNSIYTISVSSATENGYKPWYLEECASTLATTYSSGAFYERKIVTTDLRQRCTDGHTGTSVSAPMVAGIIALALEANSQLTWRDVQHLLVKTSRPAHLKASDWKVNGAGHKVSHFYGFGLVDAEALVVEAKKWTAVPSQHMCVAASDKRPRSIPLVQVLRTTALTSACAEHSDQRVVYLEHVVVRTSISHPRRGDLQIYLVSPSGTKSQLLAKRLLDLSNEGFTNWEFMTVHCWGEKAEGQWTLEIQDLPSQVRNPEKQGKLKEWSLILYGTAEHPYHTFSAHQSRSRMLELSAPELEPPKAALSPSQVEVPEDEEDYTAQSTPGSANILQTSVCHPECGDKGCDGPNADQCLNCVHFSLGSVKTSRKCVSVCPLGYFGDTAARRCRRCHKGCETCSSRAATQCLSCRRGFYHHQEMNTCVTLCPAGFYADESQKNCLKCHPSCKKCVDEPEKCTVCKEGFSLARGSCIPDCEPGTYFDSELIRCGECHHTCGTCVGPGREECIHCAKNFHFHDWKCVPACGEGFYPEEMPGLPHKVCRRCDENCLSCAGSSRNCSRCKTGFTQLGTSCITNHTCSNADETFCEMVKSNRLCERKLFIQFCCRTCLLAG

What was measured:
Test in all cases: log2 fold change, soluble protein after heating vs DMSO (PISA); higher = thermal stabilisation; K562 cells, 10 uM, 30 min; active = over 0.2 and 3.5 SD of the protein, either way, in both replicates (recomputed)
[1] = compound: CS(=O)(=O)c1ccc(-c2cnc(N)c(C(=O)Nc3ccccc3)n2)cc1
Outline: (§1)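 K562 cells (2×10^6 cells/mL) were treated with 10 μM compound for 30 min, and aliquots were heated for 3 min over 48°C-58°C. Pooled aliquots were extracted in PBS with 0.5% NP-40 at 4°C, and the supernatant after 21,000xg for 90 min was measured by TMTpro 16plex LC-MS/MS with channel sums equalised. Reported thermal stability, relative to control samples and from duplicates, is a log2 fold change.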

crizotinib = compound: C[C@@H](Oc1cc(-c2cnn(C3CCNCC3)c2)cnc1N)c1c(Cl)ccc(F)c1Cl [crizotinib]
Outline: as §1

[2] = compound: C[C@@H]1COCCN1C2=NC(=NC(=C2)C3(CC3)S(=O)(=O)C)C4=C5C=CNC5=CC=C4
Outline: as §1

[3] = compound: C[C@H](C1=CC=C(C=C1)C(=O)NC2=C3C=CNC3=NC=C2)N
Outline: as §1

gandotinib = compound: Cc1cc(Nc2cc(CN3CCOCC3)c3nc(C)c(Cc4ccc(Cl)cc4F)n3n2)n[nH]1 [gandotinib]
Outline: as §1

[4] = compound: Cc1cc(SCc2sc(-c3ccc(C(F)(F)F)cc3)nc2C)ccc1OCC(=O)O
Outline: as §1

doramapimod = compound: Cc1ccc(-n2nc(C(C)(C)C)cc2NC(=O)Nc2ccc(OCCN3CCOCC3)c3ccccc23)cc1 [doramapimod]
Outline: as §1

ispinesib = compound: Cc1ccc(C(=O)N(CCCN)[C@@H](c2nc3cc(Cl)ccc3c(=O)n2Cc2ccccc2)C(C)C)cc1 [ispinesib]
Outline: as §1

bafetinib = compound: Cc1ccc(NC(=O)c2ccc(CN3CC[C@H](N(C)C)C3)c(C(F)(F)F)c2)cc1Nc1nccc(-c2cncnc2)n1 [bafetinib]
Outline: as §1

[5] = compound: Cc1cccc(CC(=O)N2CCc3c2ccc(-c2cn(C)c4ncnc(N)c24)c3F)n1
Outline: as §1

nilotinib = compound: Cc1cn(-c2cc(NC(=O)c3ccc(C)c(Nc4nccc(-c5cccnc5)n4)c3)cc(C(F)(F)F)c2)cn1 [nilotinib]
Outline: as §1

[6] = compound: Cc1nc(Nc2n[nH]c3c2CN(C(=O)N[C@H](CN(C)C)c2ccccc2)C3(C)C)c2sccc2n1
Outline: as §1

dasatinib = compound: Cc1nc(Nc2ncc(C(=O)Nc3c(C)cccc3Cl)s2)cc(N2CCN(CCO)CC2)n1 [dasatinib]
Outline: as §1

[7] = compound: Cc1ncc(-c2ccnc(Nc3ccc(S(C)(=O)=O)cc3)n2)n1C(C)C
Outline: as §1

[8] = compound: Cn1cc(-c2ccc3c(c2)CCN3C(=O)Cc2cccc(C(F)(F)F)c2)c2c(N)ncnc21
Outline: as §1

[9] = compound: Cn1cc(-c2ccc3nnc(C(F)(F)c4ccc5ncccc5c4)n3n2)cn1
Outline: as §1

tipifarnib = compound: Cn1cncc1[C@@](N)(c1ccc(Cl)cc1)c1ccc2c(c1)c(-c1cccc(Cl)c1)cc(=O)n2C [tipifarnib]
Outline: as §1

mubritinib = compound: FC(F)(F)c1ccc(/C=C/c2nc(COc3ccc(CCCCn4ccnn4)cc3)co2)cc1 [mubritinib]
Outline: as §1

duvelisib = compound: C[C@H](Nc1ncnc2nc[nH]c12)c1cc2cccc(Cl)c2c(=O)n1-c1ccccc1 [duvelisib]
Outline: as §1

tozasertib = compound: Cc1cc(Nc2cc(N3CCN(C)CC3)nc(Sc3ccc(NC(=O)C4CC4)cc3)n2)n[nH]1 [tozasertib]
Outline: as §1

Measured: log2 fold change

PCBP1 (UniProt Q15365)
inactive: [1] 0.012 | crizotinib 0 | [2] 0.094 | [3] -0.012 | gandotinib -0.12 | [4] 0.07 | doramapimod -0.016 | ispinesib 0.028 | bafetinib -0.007 | [5] 0.033 | nilotinib -0.057 | [6] -0.086 | dasatinib -0.111 | [7] -0.026 | [8] 0.064 | [9] -0.004 | tipifarnib -0.119 | mubritinib -0.011

PCIF1 (UniProt Q9H4Z3)
inactive: [1] -0.104 | crizotinib 0.057 | [2] 0.075 | duvelisib 0.174 | gandotinib 0.068 | tozasertib 0.009 | [4] 0.035 | doramapimod -0.024 | ispinesib 0.086 | bafetinib 0.016 | [5] -0.053 | nilotinib -0.025 | [6] -0.043 | dasatinib -0.116 | [7] 0.011 | [9] 0.026 | mubritinib 0.218

PAFAH2 (UniProt Q99487)
inactive: [1] 0.005 | crizotinib 0.029 | [3] 0.08 | [4] -0.057 | doramapimod 0.053 | ispinesib -0.044 | bafetinib -0.083 | dasatinib -0.146 | [8] 0.079 | [9] 0.029
active: tipifarnib 0.611

PBK (UniProt Q96KB5)
inactive: [1] 0.048 | crizotinib -0.046 | [2] 0.051 | [3] 0.134 | gandotinib -0.136 | [4] 0.157 | doramapimod 0.015 | ispinesib -0.066 | bafetinib 0.064 | [5] 0.064 | nilotinib -0.053 | [6] -0.152 | dasatinib -0.084 | [7] 0.078 | [8] -0.004 | [9] 0.059 | tipifarnib -0.067 | mubritinib -0.06

PDPK1 (UniProt O15530)
inactive: [1] -0.066 | [2] 0.081 | [3] 0.013 | gandotinib -0.173 | [4] 0.015 | doramapimod 0.003 | ispinesib -0.143 | bafetinib -0.06 | [5] 0.051 | nilotinib -0.104 | [6] 0.089 | dasatinib -0.169 | [7] -0.084 | [8] 0.077 | [9] 0.011 | tipifarnib -0.043 | mubritinib 0.022
active: crizotinib -0.282

PARG (UniProt Q86W56)
inactive: [1] -0.027 | crizotinib -0.147 | [2] 0.013 | [3] 0.016 | gandotinib -0.094 | [4] 0.123 | doramapimod 0.015 | ispinesib -0.148 | bafetinib 0.166 | [5] 0.118 | nilotinib 0.004 | [6] -0.123 | dasatinib -0.162 | [7] -0.025 | [8] 0.093 | [9] -0.015 | tipifarnib -0.061 | mubritinib 0.061

PCYT1A (UniProt P49585)
inactive: [1] -0.031 | crizotinib -0.032 | [2] 0.092 | [3] -0.097 | gandotinib -0.148 | [4] 0.094 | doramapimod -0.008 | ispinesib 0.003 | bafetinib -0.142 | [5] 0.035 | [6] -0.129 | dasatinib -0.185 | [7] -0.04 | [8] 0.033 | [9] 0.001 | tipifarnib 0.006 | mubritinib 0.176
active: nilotinib -1.47

PDP1 isoform 2 (UniProt Q9P0J1)
inactive: [1] 0.13 | crizotinib 0.091 | doramapimod -0.014 | bafetinib 0.057 | tipifarnib -0.075

PECAM1 (UniProt P16284)
inactive: [1] 0.086 | crizotinib 0.145 | [2] 0.157 | [3] 0.034 | gandotinib -0.001 | [4] -0.03 | doramapimod -0.025 | ispinesib 0.099 | bafetinib -0.075 | [5] -0.011 | nilotinib 0.087 | [6] 0.097 | dasatinib 0.031 | [7] 0 | [8] -0.019 | [9] -0.013 | tipifarnib 0.015 | mubritinib 0.022

PCTP (UniProt Q9UKL6)
inactive: [1] 0.094 | crizotinib -0.135 | [2] 0.031 | [3] 0.003 | gandotinib 0.029 | [4] -0.033 | doramapimod -0.048 | ispinesib 0.015 | bafetinib -0.067 | [5] -0.004 | nilotinib -0.04 | [6] 0.114 | dasatinib -0.024 | [7] -0.017 | [8] 0.065 | [9] 0.036 | tipifarnib -0.104 | mubritinib 0.063

PATL1 (UniProt Q86TB9)
active: ispinesib -0.339
inactive: [1] -0.014 | crizotinib -0.201 | [2] -0.037 | [3] 0.122 | gandotinib -0.139 | [4] 0.039 | doramapimod 0.12 | bafetinib -0.007 | [5] 0.034 | dasatinib -0.032 | [8] 0.08 | [9] -0.013 | tipifarnib 0.039 | mubritinib -0.04

PCID2 (UniProt Q5JVF3)
inactive: [1] 0.157 | crizotinib -0.171 | [2] -0.138 | [3] 0.246 | gandotinib -0.149 | [4] 0.058 | doramapimod -0.005 | ispinesib -0.096 | bafetinib 0.07 | [5] 0.078 | nilotinib -0.013 | [6] -0.061 | dasatinib -0.254 | [7] -0.02 | [8] 0.038 | [9] -0.036 | tipifarnib -0.071 | mubritinib 0.109

PAPOLA (UniProt G3XAH6)
inactive: nilotinib -0.129 | [6] -0.249 | [7] -0.063

PCNX3 (UniProt Q9H6A9)
inactive: tipifarnib 0.131

PCGF6 (UniProt Q9BYE7)
inactive: duvelisib 0.055 | [4] 0.072 | dasatinib -0.036

PDXP (UniProt B1AHD3)
inactive: [2] -0.277 | [3] -0.076 | [8] 0.144

PCSK6 isoform 7 (UniProt P29122)
inactive: [1] -0.006 | [3] 0.188 | gandotinib -0.214 | bafetinib -0.069 | [5] -0.21 | nilotinib -0.268 | [6] 0.134 | [7] -0.121 | [8] -0.12 | tipifarnib 0.002 | mubritinib 0.002

PACSIN3 (UniProt Q9UKS6)
inactive: crizotinib -0.208 | [2] -0.136 | doramapimod 0.099 | ispinesib -0.111 | [9] -0.02

2 entries picked at random from the list so far, as already listed:
PDXP (UniProt B1AHD3)
inactive: [2] -0.277 | [3] -0.076 | [8] 0.144

PCBP1 (UniProt Q15365)
inactive: [1] 0.012 | crizotinib 0 | [2] 0.094 | [3] -0.012 | gandotinib -0.12 | [4] 0.07 | doramapimod -0.016 | ispinesib 0.028 | bafetinib -0.007 | [5] 0.033 | nilotinib -0.057 | [6] -0.086 | dasatinib -0.111 | [7] -0.026 | [8] 0.064 | [9] -0.004 | tipifarnib -0.119 | mubritinib -0.011
